No constants are given. Whether binding was seen depends on the method and setting. Binding seen in cells or lysates may run through a third protein. Some binding calls cover weakened binding; strength is not graded here.
Biological target: C-Raf (rat (endogenous in A7r5)) (UniProt P11345)
Experiment: co-IP; endogenous proteins of A7r5 lysates in IP lysis buffer (50 mmol/L NaCl, 10% glycerol, 1% Nonidet-P40, 10 mmol/L sodium phosphate, pH 8.0); anti-IQGAP1, anti-KSR1, anti-B-Raf or anti-C-Raf cross-linked to Protein G dynabeads, or anti-ERK1/2 cross-linked to protein A agarose, 4°C over night; western blot and densitometry; for the ERK1/2, IQGAP1 and KSR1 IPs cells were unstimulated or stimulated 5 min with DPBA or FCS

- binding: binds weakly
B1: caveolin-1 (protein, UniProt P41350 1-178)
chain: MSGGKYVDSEGHLYTVPIREQGNIYKPNNKAMADEVNEKQVYDAHTKEIDLVNRDPKHLNDDVVKIDFEDVIAEPEGTHSFDGIWKASFTTFTVTKYWFYRLLSTIFGIPMALIWGIYFAILSFLHIWAVVPCIKSFLIEIQCISRVYSIYVHTFCDPLFEAIGKIFSNIRISTQEEI

Reference: publication PMC3846746
